Here are results for 11 targets from the supplement of paper PMC10849652.

Protein sequences, listed by entry. Tags and fused reporters are not part of them. Lines headed by an entry give the natural chain unless they say otherwise; changes in a name come on top.
UniProt O75896: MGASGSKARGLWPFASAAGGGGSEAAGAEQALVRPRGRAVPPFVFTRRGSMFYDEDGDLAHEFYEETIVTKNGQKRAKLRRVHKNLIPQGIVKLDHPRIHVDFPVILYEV
UniProt Q86VQ6, whole entry, looked up: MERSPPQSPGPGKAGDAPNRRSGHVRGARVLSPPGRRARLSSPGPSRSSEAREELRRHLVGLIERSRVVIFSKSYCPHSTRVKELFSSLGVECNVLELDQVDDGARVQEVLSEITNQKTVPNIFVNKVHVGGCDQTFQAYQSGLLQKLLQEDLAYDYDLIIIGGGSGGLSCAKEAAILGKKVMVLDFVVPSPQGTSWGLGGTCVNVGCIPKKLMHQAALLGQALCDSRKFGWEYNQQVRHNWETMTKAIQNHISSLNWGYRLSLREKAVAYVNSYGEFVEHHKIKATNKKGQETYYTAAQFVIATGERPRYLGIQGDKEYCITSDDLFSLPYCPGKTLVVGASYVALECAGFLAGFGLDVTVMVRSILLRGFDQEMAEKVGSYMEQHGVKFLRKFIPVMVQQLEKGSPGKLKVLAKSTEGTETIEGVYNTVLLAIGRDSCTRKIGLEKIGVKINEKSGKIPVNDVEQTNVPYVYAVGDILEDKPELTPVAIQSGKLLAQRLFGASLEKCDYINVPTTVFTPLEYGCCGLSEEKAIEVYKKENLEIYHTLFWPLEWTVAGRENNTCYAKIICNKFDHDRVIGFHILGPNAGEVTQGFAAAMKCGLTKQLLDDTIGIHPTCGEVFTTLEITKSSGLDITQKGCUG
UniProt Q96ET8: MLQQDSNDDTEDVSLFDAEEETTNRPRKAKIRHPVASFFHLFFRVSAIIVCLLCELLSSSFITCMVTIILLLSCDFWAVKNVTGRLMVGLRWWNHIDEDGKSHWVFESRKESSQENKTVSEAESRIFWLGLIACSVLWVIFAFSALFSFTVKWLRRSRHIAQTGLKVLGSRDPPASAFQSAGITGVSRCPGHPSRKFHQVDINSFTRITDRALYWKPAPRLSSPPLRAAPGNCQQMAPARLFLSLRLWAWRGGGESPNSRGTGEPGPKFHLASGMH
UniProt P60604: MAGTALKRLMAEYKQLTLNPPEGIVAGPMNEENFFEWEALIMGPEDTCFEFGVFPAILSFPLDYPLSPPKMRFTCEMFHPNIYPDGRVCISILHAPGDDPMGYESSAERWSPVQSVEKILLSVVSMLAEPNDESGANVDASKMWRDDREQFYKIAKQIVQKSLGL
UBE2L5, A0A1B0GUS4, UniProt A0A1B0GUS4, whole entry, looked up: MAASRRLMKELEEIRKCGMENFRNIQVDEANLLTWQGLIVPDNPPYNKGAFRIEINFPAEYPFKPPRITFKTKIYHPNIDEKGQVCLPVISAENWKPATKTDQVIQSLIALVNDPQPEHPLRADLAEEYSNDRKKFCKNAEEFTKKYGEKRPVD
UniProt Q6PKC3: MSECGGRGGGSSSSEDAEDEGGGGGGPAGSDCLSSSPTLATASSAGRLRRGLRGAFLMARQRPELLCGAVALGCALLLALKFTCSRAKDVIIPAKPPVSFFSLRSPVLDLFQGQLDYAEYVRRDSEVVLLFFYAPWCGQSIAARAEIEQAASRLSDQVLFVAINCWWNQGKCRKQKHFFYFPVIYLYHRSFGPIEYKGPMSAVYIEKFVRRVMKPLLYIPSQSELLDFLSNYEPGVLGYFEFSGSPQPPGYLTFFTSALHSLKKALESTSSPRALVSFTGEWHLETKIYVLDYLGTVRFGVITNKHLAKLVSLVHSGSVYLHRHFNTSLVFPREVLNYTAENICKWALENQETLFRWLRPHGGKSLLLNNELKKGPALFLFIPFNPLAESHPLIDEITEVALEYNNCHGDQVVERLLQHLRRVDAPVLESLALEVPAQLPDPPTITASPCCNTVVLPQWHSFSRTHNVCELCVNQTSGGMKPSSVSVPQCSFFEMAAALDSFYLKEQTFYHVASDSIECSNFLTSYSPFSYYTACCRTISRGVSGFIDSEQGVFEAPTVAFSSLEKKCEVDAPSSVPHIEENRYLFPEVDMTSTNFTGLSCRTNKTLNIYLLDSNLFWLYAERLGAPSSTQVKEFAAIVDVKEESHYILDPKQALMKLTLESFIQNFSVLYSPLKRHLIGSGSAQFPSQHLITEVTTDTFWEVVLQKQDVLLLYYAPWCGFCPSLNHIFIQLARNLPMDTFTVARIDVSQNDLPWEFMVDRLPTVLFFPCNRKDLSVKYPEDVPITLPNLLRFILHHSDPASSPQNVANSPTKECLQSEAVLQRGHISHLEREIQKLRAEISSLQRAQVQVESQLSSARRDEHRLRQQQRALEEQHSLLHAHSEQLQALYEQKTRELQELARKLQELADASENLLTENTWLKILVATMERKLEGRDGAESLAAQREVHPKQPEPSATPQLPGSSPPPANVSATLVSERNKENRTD
UniProt Q9UMX0, whole entry, looked up: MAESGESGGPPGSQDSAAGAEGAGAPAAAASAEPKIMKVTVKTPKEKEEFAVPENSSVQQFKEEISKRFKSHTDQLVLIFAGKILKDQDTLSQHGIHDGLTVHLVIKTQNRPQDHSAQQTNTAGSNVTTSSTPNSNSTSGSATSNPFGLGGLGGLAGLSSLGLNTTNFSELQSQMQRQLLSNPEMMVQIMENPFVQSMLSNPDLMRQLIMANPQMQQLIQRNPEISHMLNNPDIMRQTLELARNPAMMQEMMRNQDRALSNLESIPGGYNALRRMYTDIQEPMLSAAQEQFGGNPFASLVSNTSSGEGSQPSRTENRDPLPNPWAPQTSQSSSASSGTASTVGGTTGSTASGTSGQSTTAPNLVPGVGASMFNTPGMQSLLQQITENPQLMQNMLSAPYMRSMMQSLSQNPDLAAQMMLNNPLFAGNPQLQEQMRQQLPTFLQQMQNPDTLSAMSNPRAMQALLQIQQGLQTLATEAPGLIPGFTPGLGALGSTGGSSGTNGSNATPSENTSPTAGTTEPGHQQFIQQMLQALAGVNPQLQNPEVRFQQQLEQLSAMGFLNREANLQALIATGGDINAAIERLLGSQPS

Holding throughout (experiment): log2 fold change, soluble protein after heating vs DMSO (PISA); higher = thermal stabilisation; K562 lysate, 10 uM; active = over 0.2 and 3.5 SD of the protein, either way, in both replicates (recomputed)
Compound in test [1]: C1=CC=C(C=C1)[C@H](COC2=CC3=C(C=C2)NC(=O)N3)NC(=O)C4=CC=CN(C4=O)CC5=CC(=C(C=C5)F)F
The gist of the method:
(§1)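 The values are log-two fold changes in thermal stability compared with solvent controls and come from duplicates. They were obtained by TMTpro 16plex LC-MS/MS, with channel sums equalised, on the supernatant after 21,000xg for 90 min. That supernatant came from crude K562 extract at 1 mg/mL protein treated with 10 μM compound for 30 min, heated for 3 min across 48°C-58°C, pooled and brought to 0.5% NP-40 at 4°C.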

Compound in test [2]: CC1=C(SC2=C1C(=N[C@H](C3=NN=C(N32)C)CC(=O)N)C4=CC=C(C=C4)Cl)C
A digest of the protocol:
as §1

Compound in test [3]: Cc1sc2c(c1C)C(c1ccc(Cl)cc1)=N[C@@H](CC(=O)OC(C)(C)C)c1nnc(C)n1-2
A digest of the protocol: as §1

Compound in test [4]: c1ccc([C@@H]2C[C@H]2NC2CCNCC2)cc1
A digest of the protocol: as §1

Compound in test [5]: CC1=C2C(=CC=C1)N=C(N(C2=O)C3=CC=CC=C3C)CN4C=NC5=C(N=CN=C54)N
A digest of the protocol:
as §1

Some of the results follow.

Turning to TUSC2 (UniProt O75896), the log2 fold change in test [1] is inactive: 0.137; in test [2], inactive: 0.049; in test [3] it was inactive: -0.036; in test [4] it was inactive: 0.

In the case of UBA52 (UniProt P62987), the results for the log2 fold change in test [1], in test [2] and in test [4] were inactive: 0.143, inactive: -0.054 and inactive: -0.066, respectively.

Turning to UBE2M (UniProt M0QX69), the log2 fold change in test [4] is inactive: -0.088.

As to TXNRD3 (UniProt Q86VQ6), the log2 fold change is inactive: -0.069 in test [1], inactive: 0.086 in test [2] and inactive: 0.081 in test [4].

As to UBE2K (UniProt D6RDM7), the log2 fold change in test [5] was inactive: 0.052.

Regarding TVP23C (UniProt Q96ET8), the log2 fold change in test [4] is inactive: -0.214.

UBE2G2 (UniProt P60604): the log2 fold change in test [5] is inactive: 0.024; in test [3], inactive: 0.127; in test [4], inactive: -0.137.

As for TUBA4A (UniProt C9JQ00), the log2 fold change in test [1] is inactive: -0.111; in test [2] it was inactive: -0.225; in test [4] it was inactive: 0.056.

With UBE2L5, A0A1B0GUS4, in test [4], the log2 fold change was inactive: 0.018.

Turning to TXNDC11 (UniProt Q6PKC3), the log2 fold change in test [1] was inactive: 0.018; in test [2], inactive: -0.021; in test [3], inactive: 0.051; in test [4] it was inactive: -0.03.

For UBQLN1 isoform 2 (UniProt Q9UMX0), the log2 fold change in test [5] is inactive: 0.086; in test [3] it was inactive: 0.028.
